Data published in PMC9579816.
Results are given in words; binding and its absence hold for the method and conditions named. Some entries that bind do so weakly or less than the wild type.

Molecular target: T1, Tom40 (S. cerevisiae (endogenous in yeast mitochondria)) (UniProt P23644)
T1 sequence: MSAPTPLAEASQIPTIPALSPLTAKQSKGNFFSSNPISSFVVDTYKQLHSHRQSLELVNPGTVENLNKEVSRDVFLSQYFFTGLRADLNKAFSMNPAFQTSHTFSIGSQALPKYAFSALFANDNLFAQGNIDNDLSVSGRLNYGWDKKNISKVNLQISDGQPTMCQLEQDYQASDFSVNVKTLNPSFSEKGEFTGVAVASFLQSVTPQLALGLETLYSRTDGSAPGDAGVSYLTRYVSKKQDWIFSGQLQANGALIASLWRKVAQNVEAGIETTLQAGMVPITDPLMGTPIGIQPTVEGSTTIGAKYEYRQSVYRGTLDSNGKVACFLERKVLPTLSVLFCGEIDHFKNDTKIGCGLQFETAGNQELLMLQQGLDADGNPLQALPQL
Assay: native gel or EMSA; blue native gel electrophoresis of mitochondria isolated from wild-type and Δubc8 cells shifted from glycerol to glucose medium for 4 h; Western blotting

B1: Tom22 (protein, UniProt P49334 1-152)
chain: MVELTEIKDDVVQLDEPQFSRNQAIVEEKASATNNDVVDDEDDSDSDFEDEFDENETLLDRIVALKDIVPPGKRQTISNFFGFTSSFVRNAFTKSGNLAWTLTTTALLLGVPLSLSILAEQQLIEMEKTFDLQSDANNILAQGEKDAAATAN
For B1, the binding was “binds”.
